Measurements taken from the supplement of paper PMC8728848.
The other results are listed elsewhere or left out.

Columns and labels:
Assay in all cases: glycan array binding signal (z-score within array); higher = stronger binding
Conditions in all cases: glycan notation: IUPAC condensed, linker removed
[1] = target: Fuc(a1-3)[Gal(b1-4)]GlcNAc(b1-4)Gal(b1-4)[Fuc(a1-3)]GlcNAc(b1-4)Gal(b1-4)[Fuc(a1-3)]GlcNAc
Summary of the method: (§1)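 Columns mapping to the same glycan were averaged after glycan names were converted to IUPAC-condensed notation. The data come from 3228 arrays in the Consortium for Functional Glycomics database, limited to those with an available protein sequence. Binding is reported as a within-array Z-score averaged across arrays of one protein sequence and across linkers.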

[2] = target: Fuc(a1-3)[Gal(b1-4)]GlcNAc6S
Summary of the method: as §1

[3] = target: Fuc(a1-3)[Gal3S(b1-4)]Glc
Summary of the method: as §1

[4] = target: Fuc(a1-3)[Gal3S(b1-4)]Glc6S
Summary of the method: as §1

[5] = target: Fuc(a1-3)[Gal3S(b1-4)]GlcNAc
Summary of the method: as §1

[6] = target: Fuc(a1-3)[Gal3S(b1-4)]GlcNAc6S
Summary of the method: as §1

[7] = target: Fuc(a1-3)[GalNAc(b1-4)]Gal(b1-4)GlcNAc
Summary of the method: as §1

Fuc(a1-4)GlcNAc = target: Fuc(a1-4)GlcNAc
Summary of the method: as §1

Fuc(b1-3)GlcNAc = target: Fuc(b1-3)GlcNAc
Summary of the method: as §1

Gal(a1-2)Gal = target: Gal(a1-2)Gal
Summary of the method: as §1

Gal(a1-3)Gal = target: Gal(a1-3)Gal
Summary of the method: as §1

Gal(a1-3)Gal(b1-3)Glc = target: Gal(a1-3)Gal(b1-3)Glc
Summary of the method: as §1

Gal(a1-3)Gal(b1-3)GlcNAc = target: Gal(a1-3)Gal(b1-3)GlcNAc
Summary of the method: as §1

Gal(a1-3)Gal(b1-4)GlcNAc = target: Gal(a1-3)Gal(b1-4)GlcNAc
Summary of the method: as §1

[8] = target: Gal(a1-3)Gal(b1-4)[Fuc(a1-3)]GalNAc
Summary of the method: as §1

Gal(a1-3)GlcNAc = target: Gal(a1-3)GlcNAc
Summary of the method: as §1

[9] = target: Gal(a1-3)[Gal(a1-4)]Gal(b1-4)GlcNAc
Summary of the method: as §1

Gal(a1-4)Gal(b1-4)Gal = target: Gal(a1-4)Gal(b1-4)Gal
Summary of the method: as §1

Gal(a1-4)Gal(b1-4)GalNAc = target: Gal(a1-4)Gal(b1-4)GalNAc
Summary of the method: as §1

Gal(a1-4)GlcNAc = target: Gal(a1-4)GlcNAc
Summary of the method: as §1

Gal(a1-6)Glc = target: Gal(a1-6)Glc
Summary of the method: as §1

Gal(b1-2)Gal = target: Gal(b1-2)Gal
Summary of the method: as §1

Gal(b1-3)Gal = target: Gal(b1-3)Gal
Summary of the method: as §1

Gal(b1-3)GalNAc = target: Gal(b1-3)GalNAc
Summary of the method: as §1

[10] = target: Gal(b1-3)GalNAc(b1-3)Gal(a1-4)Gal(b1-4)Glc
Summary of the method: as §1

[11] = target: Gal(b1-3)GalNAc(b1-3)Gal(b1-4)Glc
Summary of the method: as §1

[12] = target: Gal(b1-3)GalNAc(b1-3)Gal(b1-4)GlcNAc
Summary of the method: as §1

[13] = target: Gal(b1-3)GalNAc(b1-4)Gal(b1-4)Glc
Summary of the method: as §1

[14] = target: Gal(b1-3)GalNAc(b1-4)[Neu5Ac(a2-3)]Gal(b1-4)Glc
Summary of the method: as §1

[15] = target: Gal(b1-3)GlcNAc(b1-3)Gal(b1-3)GlcNAc
Summary of the method: as §1

[16] = target: Gal(b1-3)[Fuc(a1-4)]GlcNAc
Summary of the method: as §1

[17] = target: Gal(b1-3)[Fuc(a1-4)]GlcNAc(b1-3)Gal(b1-3)[Fuc(a1-4)]GlcNAc
Summary of the method: as §1

[18] = target: Gal(b1-3)[Fuc(a1-4)]GlcNAc(b1-3)Gal(b1-4)GlcNAc
Summary of the method: as §1

[19] = target: Gal(b1-3)[Fuc(a1-4)]GlcNAc(b1-3)Gal(b1-4)[Fuc(a1-3)]GlcNAc
Summary of the method: as §1

[20] = target: Gal(b1-3)[GlcNAc(b1-6)]GalNAc
Summary of the method: as §1

[21] = target: Gal(b1-3)[GlcNAc(b1-6)]GlcNAc
Summary of the method: as §1

[22] = target: Gal(b1-3)[Neu5Ac(a2-6)]GalNAc
Summary of the method: as §1

[23] = target: Gal(b1-3)[Neu5Ac(a2-6)]GlcNAc
Summary of the method: as §1

B1: Tim-4 (Mus musculus), Q6U7R4 (protein)
chain: MSKGLLLLWLVTELWWLYLTPAASEDTIIGFLGQPVTLPCHYLSWSQSRNSMCWGKGSCPNSKCNAELLRTDGTRIISRKSTKYTLLGKVQFGEVSLTISNTNRGDSGVYCCRIEVPGWFNDVKKNVRLELRRATTTKKPTTTTRPTTTPYVTTTTPELLPTTVMTTSVLPTTTPPQTLATTAFSTAVTTCPSTTPGSFSQETTKGSAFTTESETLPASNHSQRSMMTISTDIAVLRPTGSNPGILPSTSQLTTQKTTLTTSESLQKTTKSHQINSRQTILIIACCVGFVLMVLLFLAFLLRGKVTGANCLQRHKRPDNTEDSDSVLNDMSHGRDDEDGIFTL
Which “glycan array binding signal (z-score)” value [1] does the source give for B1 here?
Its value is -0.717.

What about the “glycan array binding signal (z-score)” value [2] of the same binder?
The value was 0.089.

And the “glycan array binding signal (z-score)” value [3]?
The value was -0.394.

And the “glycan array binding signal (z-score)” value [4]?
Its value is 0.515.

What about the “glycan array binding signal (z-score)” value [5] of the same binder?
Its value is 0.118.

And the “glycan array binding signal (z-score)” value [6]?
The value was 0.063.

What about the “glycan array binding signal (z-score)” value [7] of the same binder?
Its value is 0.005.

And the “glycan array binding signal (z-score)” value (Fuc(a1-4)GlcNAc)?
Its value is -0.355.

What about the “glycan array binding signal (z-score)” value (Fuc(b1-3)GlcNAc) of the same binder?
Its value is -0.139.

What about the “glycan array binding signal (z-score)” value (Gal(a1-2)Gal) of the same binder?
Its value is 0.046.

And the “glycan array binding signal (z-score)” value (Gal(a1-3)Gal)?
Its value is 1.05.

And the “glycan array binding signal (z-score)” value (Gal(a1-3)Gal(b1-3)Glc)?
The value was -0.271.

What about the “glycan array binding signal (z-score)” value (Gal(a1-3)Gal(b1-3)GlcNAc) of the same binder?
The value was -0.128.

And the “glycan array binding signal (z-score)” value (Gal(a1-3)Gal(b1-4)GlcNAc)?
Its value is 0.671.

What about the “glycan array binding signal (z-score)” value [8] of the same binder?
The value was -0.299.

What about the “glycan array binding signal (z-score)” value (Gal(a1-3)GlcNAc) of the same binder?
Its value is 0.503.

What about the “glycan array binding signal (z-score)” value [9] of the same binder?
The value was -0.083.

What about the “glycan array binding signal (z-score)” value (Gal(a1-4)Gal(b1-4)Gal) of the same binder?
The value was 0.11.

What about the “glycan array binding signal (z-score)” value (Gal(a1-4)Gal(b1-4)GalNAc) of the same binder?
The value was -0.122.

And the “glycan array binding signal (z-score)” value (Gal(a1-4)GlcNAc)?
Its value is 0.103.

And the “glycan array binding signal (z-score)” value (Gal(a1-6)Glc)?
Its value is 0.878.

What about the “glycan array binding signal (z-score)” value (Gal(b1-2)Gal) of the same binder?
The value was 0.166.

And the “glycan array binding signal (z-score)” value (Gal(b1-3)Gal)?
Its value is 0.453.

What about the “glycan array binding signal (z-score)” value (Gal(b1-3)GalNAc) of the same binder?
Its value is -0.235.

And the “glycan array binding signal (z-score)” value [10]?
The value was -0.394.

What about the “glycan array binding signal (z-score)” value [11] of the same binder?
Its value is -0.637.

What about the “glycan array binding signal (z-score)” value [12] of the same binder?
The value was -0.297.

What about the “glycan array binding signal (z-score)” value [13] of the same binder?
Its value is 0.014.

And the “glycan array binding signal (z-score)” value [14]?
The value was -0.391.

What about the “glycan array binding signal (z-score)” value [15] of the same binder?
The value was -0.425.

What about the “glycan array binding signal (z-score)” value [16] of the same binder?
Its value is -0.394.

And the “glycan array binding signal (z-score)” value [17]?
Its value is 0.394.

And the “glycan array binding signal (z-score)” value [18]?
Its value is -0.187.

And the “glycan array binding signal (z-score)” value [19]?
Its value is -0.25.

And the “glycan array binding signal (z-score)” value [20]?
The value was -0.192.

What about the “glycan array binding signal (z-score)” value [21] of the same binder?
Its value is -0.396.

And the “glycan array binding signal (z-score)” value [22]?
Its value is -0.479.

And the “glycan array binding signal (z-score)” value [23]?
The value was -0.355.
